Results published in US20030162221A1.
These are yes or no findings as the source states them, for the method shown. Binding seen in cells or lysates may run through a third protein. Some results given as binding are weak or reduced against the parent protein; the word gives no strength. Where a sequence is shown, tags or fusion partners need not be part of it.

T1: Mcd1/Scc1 (Saccharomyces cerevisiae) (UniProt Q12158)
T1 sequence (looked up): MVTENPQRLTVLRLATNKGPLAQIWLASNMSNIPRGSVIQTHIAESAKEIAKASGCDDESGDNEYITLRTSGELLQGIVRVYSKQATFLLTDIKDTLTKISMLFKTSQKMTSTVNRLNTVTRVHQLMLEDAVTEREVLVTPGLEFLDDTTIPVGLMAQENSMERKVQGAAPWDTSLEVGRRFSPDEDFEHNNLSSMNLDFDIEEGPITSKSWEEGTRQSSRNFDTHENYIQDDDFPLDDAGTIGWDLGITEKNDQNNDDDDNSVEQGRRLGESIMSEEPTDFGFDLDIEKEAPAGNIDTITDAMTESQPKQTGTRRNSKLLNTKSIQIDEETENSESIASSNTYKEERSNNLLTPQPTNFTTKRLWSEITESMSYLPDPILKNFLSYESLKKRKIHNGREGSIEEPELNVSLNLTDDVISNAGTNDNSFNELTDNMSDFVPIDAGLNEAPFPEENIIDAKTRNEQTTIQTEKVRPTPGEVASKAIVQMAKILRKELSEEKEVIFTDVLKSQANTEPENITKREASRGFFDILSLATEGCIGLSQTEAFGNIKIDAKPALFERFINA

T2: Spc72 (Saccharomyces cerevisiae) (UniProt P39723)
T2 sequence (looked up): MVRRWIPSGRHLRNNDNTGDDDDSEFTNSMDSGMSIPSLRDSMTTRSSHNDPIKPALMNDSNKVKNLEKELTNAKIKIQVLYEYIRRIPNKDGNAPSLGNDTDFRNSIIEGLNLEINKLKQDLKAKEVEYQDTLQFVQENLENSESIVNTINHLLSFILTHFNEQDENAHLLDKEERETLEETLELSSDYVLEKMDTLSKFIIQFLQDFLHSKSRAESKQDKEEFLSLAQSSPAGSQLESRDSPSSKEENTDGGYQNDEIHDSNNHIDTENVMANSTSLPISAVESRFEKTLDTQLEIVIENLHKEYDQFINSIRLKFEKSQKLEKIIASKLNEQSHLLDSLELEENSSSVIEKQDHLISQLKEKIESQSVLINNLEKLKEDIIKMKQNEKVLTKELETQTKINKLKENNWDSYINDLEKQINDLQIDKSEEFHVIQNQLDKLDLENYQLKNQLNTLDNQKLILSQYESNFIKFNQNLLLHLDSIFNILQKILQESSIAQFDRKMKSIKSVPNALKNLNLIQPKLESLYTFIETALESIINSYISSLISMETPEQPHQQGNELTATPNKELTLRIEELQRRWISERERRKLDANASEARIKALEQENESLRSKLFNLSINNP

T3: Tec1 (Saccharomyces cerevisiae) (UniProt P18412)
T3 sequence (looked up): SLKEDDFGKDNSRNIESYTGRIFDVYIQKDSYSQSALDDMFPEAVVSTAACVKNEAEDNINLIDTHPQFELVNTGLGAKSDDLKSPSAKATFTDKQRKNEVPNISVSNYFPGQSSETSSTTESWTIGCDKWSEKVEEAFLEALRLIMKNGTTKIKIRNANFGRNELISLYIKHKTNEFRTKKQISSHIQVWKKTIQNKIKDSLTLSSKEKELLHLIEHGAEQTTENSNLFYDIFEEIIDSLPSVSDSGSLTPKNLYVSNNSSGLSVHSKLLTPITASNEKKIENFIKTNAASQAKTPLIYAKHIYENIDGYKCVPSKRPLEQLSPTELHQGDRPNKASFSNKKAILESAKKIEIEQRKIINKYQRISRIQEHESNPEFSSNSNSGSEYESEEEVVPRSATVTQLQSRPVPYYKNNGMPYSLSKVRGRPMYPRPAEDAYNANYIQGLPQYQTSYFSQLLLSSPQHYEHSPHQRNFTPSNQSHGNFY

T4: Dig1/Rst1 (Saccharomyces cerevisiae) (UniProt Q03063)
T4 sequence (looked up): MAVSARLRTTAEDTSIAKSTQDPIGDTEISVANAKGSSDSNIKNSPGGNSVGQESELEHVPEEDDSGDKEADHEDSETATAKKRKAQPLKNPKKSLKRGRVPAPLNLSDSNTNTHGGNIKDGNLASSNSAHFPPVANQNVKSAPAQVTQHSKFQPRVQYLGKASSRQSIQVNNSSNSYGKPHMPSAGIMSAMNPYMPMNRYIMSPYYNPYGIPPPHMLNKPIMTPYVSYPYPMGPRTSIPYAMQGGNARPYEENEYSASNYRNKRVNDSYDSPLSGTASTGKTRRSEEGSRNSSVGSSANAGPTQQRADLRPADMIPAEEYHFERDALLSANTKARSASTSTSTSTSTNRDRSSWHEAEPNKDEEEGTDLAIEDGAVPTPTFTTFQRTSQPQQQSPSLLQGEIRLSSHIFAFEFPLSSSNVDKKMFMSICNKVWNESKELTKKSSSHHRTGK

T5: Bck2 (Saccharomyces cerevisiae) (UniProt P33306)
T5 sequence (looked up): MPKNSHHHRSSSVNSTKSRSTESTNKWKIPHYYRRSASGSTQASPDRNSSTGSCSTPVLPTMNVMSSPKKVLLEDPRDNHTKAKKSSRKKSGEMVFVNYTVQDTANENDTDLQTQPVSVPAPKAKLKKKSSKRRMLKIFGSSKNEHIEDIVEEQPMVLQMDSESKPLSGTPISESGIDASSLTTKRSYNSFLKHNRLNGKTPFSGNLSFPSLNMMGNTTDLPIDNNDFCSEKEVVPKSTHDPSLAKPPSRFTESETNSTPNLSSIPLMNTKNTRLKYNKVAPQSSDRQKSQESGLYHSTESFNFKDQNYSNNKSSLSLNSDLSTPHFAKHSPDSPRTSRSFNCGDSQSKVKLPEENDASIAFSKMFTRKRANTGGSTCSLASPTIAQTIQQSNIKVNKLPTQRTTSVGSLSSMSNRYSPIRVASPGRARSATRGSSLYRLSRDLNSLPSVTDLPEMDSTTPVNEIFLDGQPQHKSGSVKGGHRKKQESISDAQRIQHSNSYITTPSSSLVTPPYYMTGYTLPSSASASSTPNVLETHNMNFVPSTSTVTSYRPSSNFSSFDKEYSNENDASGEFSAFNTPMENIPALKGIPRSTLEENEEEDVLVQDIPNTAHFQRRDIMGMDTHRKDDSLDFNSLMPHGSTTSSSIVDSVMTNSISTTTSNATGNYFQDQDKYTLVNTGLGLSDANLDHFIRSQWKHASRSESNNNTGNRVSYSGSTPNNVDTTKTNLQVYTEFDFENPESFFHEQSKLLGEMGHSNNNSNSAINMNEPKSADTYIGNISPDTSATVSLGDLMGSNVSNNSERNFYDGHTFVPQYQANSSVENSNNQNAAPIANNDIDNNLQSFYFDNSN

B1: Cdc5 (protein, Saccharomyces cerevisiae, UniProt P32562 1-705, looked up)
chain: MSLGPLKAINDKQLNTRSKLVHTPIKGNTADLVGKENHFKQTKRLDPNNDHHHQPAQKKKREKLSALCKTPPSLIKTRGKDYHRGHFLGEGGFARCFQIKDDSGEIFAAKTVAKASIKSEKTRKKLLSEIQIHKSMSHPNIVQFIDCFEDDSNVYILLEICPNGSLMELLKRRKVLTEPEVRFFTTQICGAIKYMHSRRVIHRDLKLGNIFFDSNYNLKIGDFGLAAVLANESERKYTICGTPNYIAPEVLMGKHSGHSFEVDIWSLGVMLYALLIGKPPFQARDVNTIYERIKCRDFSFPRDKPISDEGKILIRDILSLDPIERPSLTEIMDYVWFRGTFPPSIPSTVMSEAPNFEDIPEEQSLVNFKDCMEKSLLLESMSSDKIQRQKRDYISSIKSSIDKLEEYHQNRPFLPHSLSPGGTKQKYKEVVDIEAQRRLNDLAREARIRRAQQAVLRKELIATSTNVIKSEISLRILASECHLTLNGIVEAEAQYKMGGLPKSRLPKIKHPMIVTKWVDYSNKHGFSYQLSTEDIGVLFNNGTTVLRLADAEEFWYISYDDREGWVASHYLLSEKPRELSRHLEVVDFFAKYMKANLSRVSTFGREEYHKDDVFLRRYTRYKPFVMFELSDGTFQFNFKDHHKMAISDGGKLVTYISPSHESTTYPLVEVLKYGEIPGYPESNFREKLTLIKEGLKQKSTIVTVD
B2: Kss1 (protein, Saccharomyces cerevisiae, UniProt P14681 1-368, looked up)
chain: MARTITFDIPSQYKLVDLIGEGAYGTVCSAIHKPSGIKVAIKKIQPFSKKLFVTRTIREIKLLRYFHEHENIISILDKVRPVSIDKLNAVYLVEELMETDLQKVINNQNSGFSTLSDDHVQYFTYQILRALKSIHSAQVIHRDIKPSNLLLNSNCDLKVCDFGLARCLASSSDSRETLVGFMTEYVATRWYRAPEIMLTFQEYTTAMDIWSCGCILAEMVSGKPLFPGRDYHHQLWLILEVLGTPSFEDFNQIKSKRAKEYIANLPMRPPLPWETVWSKTDLNPDMIDLLDKMLQFNPDKRISAAEALRHPYLAMYHDPSDEPEYPPLNLDDEFWKLDNKIMRPEEEEEVPIEMLKDMLYDELMKTME

How the values were obtained:
Experiment in all cases: anti-FLAG co-IP, LC-MS/MS
[1] = biological target: T1, Mcd1/Scc1 (Saccharomyces cerevisiae)
[2] = biological target: T2, Spc72 (Saccharomyces cerevisiae)
[3] = biological target: T3, Tec1 (Saccharomyces cerevisiae)
[4] = biological target: T4, Dig1/Rst1 (Saccharomyces cerevisiae)
[5] = biological target: T5, Bck2 (Saccharomyces cerevisiae)

| Binder | binding [1] | binding [2] | binding [3] | binding [4] | binding [5] |
| --- | --- | --- | --- | --- | --- |
| B1 | binds | binds |  |  |  |
| B2 |  |  | binds | binds | binds |
